Data source: PubChem BioAssay AID1259254 (NCATS, 2017)
Here is one part, drawn at random, of about 59,000 reagents tested. About 1,550 of them (2.6%) count as active. 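G2 share is only a proxy for re-replication; each gene was hit by three separate siRNAs, and active genes were retested.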 Unmarked entries are inactive. Reagents against one gene are numbered here. Not all columns of the deposit are shown. The record does not give: the amount of reagent.

Screen: 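Gene knock-downs that lead to re-replication, shown by excess G2 DNA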 (primary screen)
Cell system: human HCT116 colorectal cancer cells
Knock-down reagent: single siRNA against human genes
Timing: 3 days
Measurement: 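Nuclei stained with Hoechst and imaged; cell-cycle phase assigned by DNA content; G2 share scaled per plate, non-targeting siRNA 0%, GMNN siRNA 100%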
Scale: G2 robust z-score: higher = more G2 cells, more excess DNA replication
Rule for the call: 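An siRNA counts as active if its G2 robust z-score lies at least 5 MADs above the screen median; here such calls match roughly 38% of GMNN control or more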

target | reagent | G2 robust z-score
TBCEL | 1 | 4.38
TBCEL | 2 | -0.21
TBCEL | 3 | 0.178
TLE6 | 1 | -0.588
TLE6 | 2 | -0.33
TLE6 | 3 | 0.826
STXBP5-AS1 | 1 | -0.24
STXBP5-AS1 | 2 | 6.66 (active)
STXBP5-AS1 | 3 | 1.67
NEMP1 | 1 | -0.356
NEMP1 | 2 | -0.229
NEMP1 | 3 | 4.86
UBE2R2 | 1 | 3.01
UBE2R2 | 2 | -0.281
UBE2R2 | 3 | -1.02
FCF1 | 1 | 3.19
FCF1 | 2 | -0.583
FCF1 | 3 | 2.86
MEDAG | 1 | 0.00365
MEDAG | 2 | -1.2
MEDAG | 3 | 0.965
CPAP | 1 | 1.94
CPAP | 2 | 2.2
CPAP | 3 | 0.0242

Looked up above.
MEDAG #2, G2 robust z-score → -1.2
Under “G2 robust z-score”, FCF1 #1 shows 3.19
Result for NEMP1 #3 in “G2 robust z-score”: 4.86
UBE2R2 #2, G2 robust z-score = -0.281
UBE2R2 #3, G2 robust z-score = -1.02
NEMP1 #1, G2 robust z-score → -0.356

Continued.
target | reagent | G2 robust z-score
HOGA1 | 1 | -0.725
HOGA1 | 2 | -0.723
HOGA1 | 3 | 0.644
SLC36A1 | 1 | 1.3
SLC36A1 | 2 | 1.01
SLC36A1 | 3 | 1.77
PTPRCAP | 1 | -1.39
PTPRCAP | 2 | -0.664
PTPRCAP | 3 | -0.464
RSPO2 | 1 | 1.09
RSPO2 | 2 | -0.541
RSPO2 | 3 | 0.298
HS6ST1 | 1 | 6.46 (active)
HS6ST1 | 2 | -0.694
HS6ST1 | 3 | -0.0343
FRMD7 | 1 | 0.0522
FRMD7 | 2 | 1.1
FRMD7 | 3 | 1.34
KCNJ13 | 1 | 0.702
KCNJ13 | 2 | -0.322
KCNJ13 | 3 | 1.54
HNRNPA2B1 | 1 | 0.231
HNRNPA2B1 | 2 | 0.55
HNRNPA2B1 | 3 | -0.655
